4 molecules from patent publication US20230085439A1 can be followed below.

Results are given in words; binding and its absence hold for the method and conditions named. For some assays here: Binding can be weak; no strength is given.

Assay [1] deals with Ply (Streptococcus pneumoniae). Put plainly: condition: about 20 µg/mL (last point at log10 about 1.3); ELISA on coated antigen, mAb titrated.
Assay [2] has as its target hMPV B2 F-GCN4 dFP 6R (human metapneumovirus). Put plainly: ELISA, referred back to.
The target is the same in assay [3]. Put plainly: ELISA.

B1: MPV314 (antibody, V domains shown)
VH: QVQLVQSGGGVVQPGRSLRLSCAASGFSFSDYGMDWVRQAPGKGLEWVAVISYDGSNQYYADSVKGRFTVSRDNSKNTVYLQMNSLRAEDTAVYFCAKDESRRYYYSSGIHSHWGQGTLVTVSS
VL: DIVMTQSPATLSVSPGERATLSCRASQSVSRNLAWYQQKPGQAPRLLIFGASTRATGIPARFSGSASGTEFTLTISSLQSEDFAVYYCHQYNYWPPGTFGQGTRLEIK
For the molecule B1, the binding entry in assay [1] is given as “no binding”.

B2: MPV458 (antibody, V domains shown)
VH: QGKLVESGGGVIQPGRSLRLSCAASGFDFSRYGLHWVRQAPGKGLEWVAVIVYAGSNKYYADSVKGRFTISKDNSKNTMHLQMSDLRTEDTAVYYCARDQAFDLWGQGTMVTVSS
VL: DIQMTQSPASLSASVGDRVTITCQASQGISRSVNWYQQKPGKAPKLLIFDASHLERGVPSRFSGSGYGTDFTFTISSLQPEDIATYYCQQYDNLRISFGQGTRLEIK
For the molecule B2, the binding result in assay [2] and in assay [3] was “binds” in each case.

B3: MPV196 (antibody, V domains shown)
VH: QVQLQQWGAGLLKPSETLSLTCAVYGGSFSGYSWTWIRQPPGKGLEWIGEINHSGSTNYNPSLKSRVTISIDTSRNQFSLKLISVTAADTAVYYCARGVRGGYNLWHFDVWGQGTLVTVSS
VL: SYELSQSPSVSVSPGQTARITCSGDKLGNKYASWYQQKPGQSPVLVIYQDDKRPSGIPERFSGSNSGNTATLTIGGTQAMDEADYSCQAWDGRTAVVFGGGTKLTVL
Consider B3, for which the binding entry in assay [1] is on record as “no binding”.

B4: MPV364 (antibody, V domains shown)
VH: QVQLVQSGAEVKKPGASVKVSCKASGYTFTHDSIHWVRQAPGQRLEWMGWINVGNGDTKSSQKFQDRLTITRDTSANTAYMEVRSLKYEDTAMYFCARVDQYCIGGVCYGGKNWFDPWGQGTLVTVSS
VL: SYELNQPPSVSVAPGQTAMITCGGYYVGVKSLHWYQQKAGQAPVLVVHDDSDRPSGIPERFSGSKSGDTATLIISRVEAGDEADYYCQVWDRDSDHPYVFGTGTTVTVL
Regarding B4, in assay [1], the binding entry was “no binding”.
